Results taken from CN107840889A.
These are yes or no findings as the source states them, for the method shown. Some binding calls cover weakened binding; strength is not graded here. Where a sequence is shown, tags or fusion partners need not be part of it.

Molecular target: T1, CD123-his-biotin抗原 (Homo sapiens (Human)) (UniProt P26951)
T1 sequence (chain, biotin label (site not stated)): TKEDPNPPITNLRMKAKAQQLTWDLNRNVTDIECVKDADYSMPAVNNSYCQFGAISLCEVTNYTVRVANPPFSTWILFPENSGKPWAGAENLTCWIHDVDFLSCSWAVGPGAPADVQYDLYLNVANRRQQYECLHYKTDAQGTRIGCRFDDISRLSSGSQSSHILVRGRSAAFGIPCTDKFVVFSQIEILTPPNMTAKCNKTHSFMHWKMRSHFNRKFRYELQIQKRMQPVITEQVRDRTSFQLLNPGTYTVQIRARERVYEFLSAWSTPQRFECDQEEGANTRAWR
Assay: BLI (Octet RED96), CD123-Biotin on AR2G sensor

B1: 8A7 (scFv, V domains shown)
VH: QVQLQQPGAELVRPGASVKLSCKASGYTFTSYWMNWVKQRPDQGLEWIGRIDPYDSETHYNQKFKDKAILTVDKSSSTAYMQLSSLTSEDSAVYYCARGNWDDYWGQGTTLTVSS
VL: DVQITQSPSYLAASPGETITINCRASKSISKDLAWYQEKPGKTNKLLIYSGSTLQSGIPSRFSGSGSGTDFTLTISSLEPEDFAMYYCQQTNRYPYTFGGGTKLEIK
binding: binds
